Data from the supplement of paper PMC12595434, “Development of retinoid nuclear receptor pathway antagonists through targeting aldehyde dehydrogenase 1A3” (iScience, 2025).
Some of the results follow. This is a noisy data set.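 Tm was set to 64 °C where no melting was found, and many curves are irregular.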

Sequences of proteins named here, by UniProt entry; tags and fusion partners are left off. A change or cut given only in a name is not applied to a line headed by its entry.
UniProt Q9BWJ5: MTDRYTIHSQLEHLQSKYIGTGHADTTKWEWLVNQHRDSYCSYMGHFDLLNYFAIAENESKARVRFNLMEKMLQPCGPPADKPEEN
UniProt Q9BVL2: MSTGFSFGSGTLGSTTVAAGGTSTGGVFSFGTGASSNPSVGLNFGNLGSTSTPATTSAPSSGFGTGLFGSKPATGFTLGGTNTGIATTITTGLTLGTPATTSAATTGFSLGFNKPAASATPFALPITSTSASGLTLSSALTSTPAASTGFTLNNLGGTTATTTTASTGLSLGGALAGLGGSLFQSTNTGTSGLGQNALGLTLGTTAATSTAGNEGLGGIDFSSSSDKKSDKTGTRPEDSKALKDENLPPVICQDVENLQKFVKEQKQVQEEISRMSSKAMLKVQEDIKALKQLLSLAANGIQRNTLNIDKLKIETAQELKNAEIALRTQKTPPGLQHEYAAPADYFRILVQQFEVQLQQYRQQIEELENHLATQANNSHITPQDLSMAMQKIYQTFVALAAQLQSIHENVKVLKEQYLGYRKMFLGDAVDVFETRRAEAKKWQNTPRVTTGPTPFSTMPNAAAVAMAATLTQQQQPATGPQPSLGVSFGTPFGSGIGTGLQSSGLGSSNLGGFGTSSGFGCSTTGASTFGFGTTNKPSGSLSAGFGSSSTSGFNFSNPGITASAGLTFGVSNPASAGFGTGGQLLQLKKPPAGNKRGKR
UniProt Q9BQG0: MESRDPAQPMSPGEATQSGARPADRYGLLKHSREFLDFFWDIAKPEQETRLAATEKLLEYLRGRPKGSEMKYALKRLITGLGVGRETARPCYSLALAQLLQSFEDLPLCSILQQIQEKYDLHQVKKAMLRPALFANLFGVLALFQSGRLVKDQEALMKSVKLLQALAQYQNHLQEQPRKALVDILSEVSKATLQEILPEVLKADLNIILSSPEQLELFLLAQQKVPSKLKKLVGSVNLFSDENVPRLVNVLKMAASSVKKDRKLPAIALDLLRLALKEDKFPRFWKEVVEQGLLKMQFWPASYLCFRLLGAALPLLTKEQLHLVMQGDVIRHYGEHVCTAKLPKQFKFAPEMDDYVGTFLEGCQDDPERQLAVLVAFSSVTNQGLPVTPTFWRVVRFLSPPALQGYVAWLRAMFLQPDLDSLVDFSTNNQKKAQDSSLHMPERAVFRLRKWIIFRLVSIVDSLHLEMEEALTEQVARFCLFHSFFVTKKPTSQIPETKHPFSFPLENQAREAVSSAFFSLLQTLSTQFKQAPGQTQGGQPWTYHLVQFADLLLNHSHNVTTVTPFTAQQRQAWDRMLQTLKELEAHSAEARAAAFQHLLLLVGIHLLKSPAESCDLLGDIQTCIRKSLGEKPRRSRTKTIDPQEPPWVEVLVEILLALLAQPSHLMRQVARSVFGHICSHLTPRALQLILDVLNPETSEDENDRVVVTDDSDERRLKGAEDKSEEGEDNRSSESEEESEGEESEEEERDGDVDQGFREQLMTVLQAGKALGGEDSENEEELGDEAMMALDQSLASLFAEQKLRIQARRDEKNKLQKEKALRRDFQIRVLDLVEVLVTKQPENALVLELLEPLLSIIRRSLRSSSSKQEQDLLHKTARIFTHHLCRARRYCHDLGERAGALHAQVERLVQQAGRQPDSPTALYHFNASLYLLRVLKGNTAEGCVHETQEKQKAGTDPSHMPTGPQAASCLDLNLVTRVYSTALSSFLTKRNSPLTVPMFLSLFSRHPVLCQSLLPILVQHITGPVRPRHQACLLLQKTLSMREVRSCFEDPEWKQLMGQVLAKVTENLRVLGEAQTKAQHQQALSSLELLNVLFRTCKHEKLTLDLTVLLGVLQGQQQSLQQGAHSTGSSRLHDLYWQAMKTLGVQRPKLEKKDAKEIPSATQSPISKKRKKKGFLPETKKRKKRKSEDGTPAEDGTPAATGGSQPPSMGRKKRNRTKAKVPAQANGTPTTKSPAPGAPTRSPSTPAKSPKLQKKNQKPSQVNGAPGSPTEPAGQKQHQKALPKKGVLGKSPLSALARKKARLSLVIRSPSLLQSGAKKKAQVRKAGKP
UniProt Q9BTV6: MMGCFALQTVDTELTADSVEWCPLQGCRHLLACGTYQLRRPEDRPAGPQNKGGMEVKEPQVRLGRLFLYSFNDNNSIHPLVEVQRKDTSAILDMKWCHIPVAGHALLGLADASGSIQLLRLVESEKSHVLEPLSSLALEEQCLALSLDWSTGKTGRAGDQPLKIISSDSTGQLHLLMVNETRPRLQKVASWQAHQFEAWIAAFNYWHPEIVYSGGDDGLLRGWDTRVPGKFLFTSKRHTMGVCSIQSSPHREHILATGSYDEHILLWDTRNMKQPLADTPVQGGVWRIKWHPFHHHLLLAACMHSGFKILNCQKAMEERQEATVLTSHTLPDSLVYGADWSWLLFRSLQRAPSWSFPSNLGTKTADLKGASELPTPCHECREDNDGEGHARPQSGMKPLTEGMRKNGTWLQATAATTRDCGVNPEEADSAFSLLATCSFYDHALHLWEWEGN
UniProt Q9BXF6: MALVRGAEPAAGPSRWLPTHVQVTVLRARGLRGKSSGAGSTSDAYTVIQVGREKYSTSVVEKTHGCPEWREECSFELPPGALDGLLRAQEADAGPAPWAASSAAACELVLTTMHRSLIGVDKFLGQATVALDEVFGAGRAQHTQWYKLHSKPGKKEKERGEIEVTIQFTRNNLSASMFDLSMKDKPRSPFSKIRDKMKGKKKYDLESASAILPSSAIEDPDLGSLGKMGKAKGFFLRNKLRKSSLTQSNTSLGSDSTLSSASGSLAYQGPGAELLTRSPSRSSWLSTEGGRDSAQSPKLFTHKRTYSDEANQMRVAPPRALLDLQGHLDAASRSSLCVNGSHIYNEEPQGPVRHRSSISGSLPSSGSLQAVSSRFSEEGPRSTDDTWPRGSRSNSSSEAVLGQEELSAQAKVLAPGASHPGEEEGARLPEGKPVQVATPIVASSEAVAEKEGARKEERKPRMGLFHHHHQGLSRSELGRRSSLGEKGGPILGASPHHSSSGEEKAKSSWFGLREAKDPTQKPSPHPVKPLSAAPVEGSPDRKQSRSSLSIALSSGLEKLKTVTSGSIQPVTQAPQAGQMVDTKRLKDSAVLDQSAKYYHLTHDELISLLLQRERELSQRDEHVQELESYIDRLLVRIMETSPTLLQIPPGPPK
UniProt Q9BXP2: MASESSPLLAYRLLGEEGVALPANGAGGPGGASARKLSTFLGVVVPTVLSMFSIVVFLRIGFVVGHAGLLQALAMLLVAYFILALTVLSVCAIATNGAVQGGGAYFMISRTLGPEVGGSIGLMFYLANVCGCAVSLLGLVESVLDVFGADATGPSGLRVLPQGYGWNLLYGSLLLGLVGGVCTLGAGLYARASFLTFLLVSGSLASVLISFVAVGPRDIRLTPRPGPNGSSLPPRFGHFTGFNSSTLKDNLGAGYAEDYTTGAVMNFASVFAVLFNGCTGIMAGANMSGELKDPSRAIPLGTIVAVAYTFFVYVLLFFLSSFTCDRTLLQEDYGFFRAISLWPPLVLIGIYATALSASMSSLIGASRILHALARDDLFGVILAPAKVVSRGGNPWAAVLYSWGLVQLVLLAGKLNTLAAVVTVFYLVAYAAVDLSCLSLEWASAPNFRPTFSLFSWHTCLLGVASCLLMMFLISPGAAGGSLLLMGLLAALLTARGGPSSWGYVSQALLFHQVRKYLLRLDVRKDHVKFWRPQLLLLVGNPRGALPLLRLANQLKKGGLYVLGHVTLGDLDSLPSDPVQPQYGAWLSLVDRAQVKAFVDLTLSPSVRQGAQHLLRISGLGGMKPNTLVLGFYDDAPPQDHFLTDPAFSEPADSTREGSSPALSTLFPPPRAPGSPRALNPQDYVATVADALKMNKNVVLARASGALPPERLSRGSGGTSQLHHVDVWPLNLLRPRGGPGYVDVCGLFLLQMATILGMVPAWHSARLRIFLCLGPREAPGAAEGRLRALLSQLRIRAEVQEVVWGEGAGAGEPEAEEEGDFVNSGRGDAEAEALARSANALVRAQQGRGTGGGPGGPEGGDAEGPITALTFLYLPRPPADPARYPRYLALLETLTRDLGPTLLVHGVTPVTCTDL
UniProt Q9BRK5: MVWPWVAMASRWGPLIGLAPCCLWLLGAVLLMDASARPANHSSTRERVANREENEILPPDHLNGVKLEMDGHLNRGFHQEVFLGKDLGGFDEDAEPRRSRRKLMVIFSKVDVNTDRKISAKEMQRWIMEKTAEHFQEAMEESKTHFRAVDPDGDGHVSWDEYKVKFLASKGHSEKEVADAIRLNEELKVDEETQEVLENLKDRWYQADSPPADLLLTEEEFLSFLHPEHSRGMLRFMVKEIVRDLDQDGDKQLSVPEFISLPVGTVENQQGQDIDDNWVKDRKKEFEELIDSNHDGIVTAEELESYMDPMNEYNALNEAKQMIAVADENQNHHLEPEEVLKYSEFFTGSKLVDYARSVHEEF
UniProt Q99828: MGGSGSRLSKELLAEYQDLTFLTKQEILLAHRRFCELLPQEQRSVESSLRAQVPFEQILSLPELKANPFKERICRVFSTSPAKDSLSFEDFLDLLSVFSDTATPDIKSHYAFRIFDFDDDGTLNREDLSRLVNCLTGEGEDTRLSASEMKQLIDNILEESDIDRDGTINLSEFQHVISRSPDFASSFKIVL
UniProt Q9BRT3: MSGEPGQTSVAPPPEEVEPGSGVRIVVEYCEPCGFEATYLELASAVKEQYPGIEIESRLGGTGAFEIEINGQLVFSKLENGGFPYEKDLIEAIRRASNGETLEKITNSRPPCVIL
UniProt Q9BRT9, whole entry: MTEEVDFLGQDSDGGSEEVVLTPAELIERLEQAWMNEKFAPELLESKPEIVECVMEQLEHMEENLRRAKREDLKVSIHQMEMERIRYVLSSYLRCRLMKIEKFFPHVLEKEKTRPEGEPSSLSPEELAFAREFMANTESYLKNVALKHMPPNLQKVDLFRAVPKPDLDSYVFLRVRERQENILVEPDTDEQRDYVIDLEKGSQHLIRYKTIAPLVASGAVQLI
UniProt Q9BRT8: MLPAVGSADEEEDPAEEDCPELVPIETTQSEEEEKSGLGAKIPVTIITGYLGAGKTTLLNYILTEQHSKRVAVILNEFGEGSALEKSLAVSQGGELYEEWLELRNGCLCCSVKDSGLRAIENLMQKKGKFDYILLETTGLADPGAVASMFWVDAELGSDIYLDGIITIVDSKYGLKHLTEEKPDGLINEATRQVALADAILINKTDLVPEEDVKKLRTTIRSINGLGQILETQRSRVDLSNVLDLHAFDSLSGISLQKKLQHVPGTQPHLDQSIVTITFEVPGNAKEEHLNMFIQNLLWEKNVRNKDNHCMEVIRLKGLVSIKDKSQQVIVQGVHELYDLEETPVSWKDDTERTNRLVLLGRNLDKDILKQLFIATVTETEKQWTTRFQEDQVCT
UniProt Q9BSK4: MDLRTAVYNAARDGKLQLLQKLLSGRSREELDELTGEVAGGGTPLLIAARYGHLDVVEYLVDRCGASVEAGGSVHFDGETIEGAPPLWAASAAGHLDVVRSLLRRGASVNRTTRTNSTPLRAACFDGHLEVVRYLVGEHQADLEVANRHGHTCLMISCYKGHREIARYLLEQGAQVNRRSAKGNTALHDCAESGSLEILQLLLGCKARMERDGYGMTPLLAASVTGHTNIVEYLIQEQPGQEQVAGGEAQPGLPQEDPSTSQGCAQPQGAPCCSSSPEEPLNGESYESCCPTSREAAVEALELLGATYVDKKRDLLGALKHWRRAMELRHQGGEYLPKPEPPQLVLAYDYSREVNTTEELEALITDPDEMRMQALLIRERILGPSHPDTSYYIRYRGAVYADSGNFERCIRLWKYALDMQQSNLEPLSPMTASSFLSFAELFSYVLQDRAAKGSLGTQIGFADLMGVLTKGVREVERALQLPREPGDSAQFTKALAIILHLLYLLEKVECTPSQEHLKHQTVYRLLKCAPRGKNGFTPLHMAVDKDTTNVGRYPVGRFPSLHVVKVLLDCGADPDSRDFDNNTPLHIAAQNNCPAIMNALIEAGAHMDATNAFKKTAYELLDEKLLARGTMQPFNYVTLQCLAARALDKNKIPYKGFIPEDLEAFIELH
UniProt Q9BPZ7, whole entry: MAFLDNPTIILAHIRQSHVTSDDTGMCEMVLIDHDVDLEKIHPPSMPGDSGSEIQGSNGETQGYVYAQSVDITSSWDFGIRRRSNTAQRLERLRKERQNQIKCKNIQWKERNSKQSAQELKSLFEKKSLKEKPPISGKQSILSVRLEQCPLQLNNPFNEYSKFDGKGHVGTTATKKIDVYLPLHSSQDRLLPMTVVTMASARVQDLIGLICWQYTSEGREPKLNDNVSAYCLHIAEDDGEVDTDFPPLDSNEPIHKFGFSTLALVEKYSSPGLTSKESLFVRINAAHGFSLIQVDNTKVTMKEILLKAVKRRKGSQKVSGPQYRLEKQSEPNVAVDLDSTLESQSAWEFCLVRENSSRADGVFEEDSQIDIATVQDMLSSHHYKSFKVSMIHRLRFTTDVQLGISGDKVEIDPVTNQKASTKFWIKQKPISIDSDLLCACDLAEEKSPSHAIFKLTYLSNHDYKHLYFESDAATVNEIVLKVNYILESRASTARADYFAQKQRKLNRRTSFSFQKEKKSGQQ

Compound: CCc1cnccc1C(=O)Nc1cc2c(cc1F)NC(=O)CC2
Assay: melting temperature shift (DMSO Tm minus MBE1-treated Tm) in cellular thermal proteome profiling; higher = less thermal stabilization by MBE1 (negative = stabilized by MBE1)
Conditions: A375

| Target | melting temperature shift (MBE1 concentration: 100 nM) [°C] | melting temperature shift (MBE1 concentration: 1 uM) [°C] |
| --- | --- | --- |
| POP1 (UniProt Q99575) | -1.31 | -0.615 |
| HIRIP3 (UniProt Q9BW71) | -0.483 | 0.782 |
| MND1 (UniProt Q9BWT6) | -1.74 | -1.99 |
| ATG101 (UniProt Q9BSB4) | -2.29 | -2.81 |
| UniProt Q9BVS4 | -0.44 | 0.47 |
| TARS2 (UniProt Q9BW92) | -0.725 | 0.193 |
| BAG1 (UniProt Q99933) | -1.52 | -2.95 |
| ABHD6 (UniProt Q9BV23) | 0.281 | -1.23 |
| EIF2A (UniProt Q9BY44) | -0.514 | -0.122 |
| PELO (UniProt Q9BRX2) | -0.333 | -0.436 |
| DOHH (UniProt Q9BU89) | -0.359 | -0.128 |
| CNPY3 (UniProt Q9BT09) | -2.4 | -2.93 |
| UniProt Q9BWJ5 | -0.183 | 0.892 |
| ITPA (UniProt Q9BY32) | -2 | -0.874 |
| UniProt Q99549 | -2.58 | -3.93 |
| UniProt Q9BT88 | -1.02 | -0.0916 |
| ELOVL1 (UniProt Q9BW60) | 0.818 | 0.385 |
| NUP58 (UniProt Q9BVL2) | -0.299 | 0.116 |
| ALG1 (UniProt Q9BT22) | -1.01 | 0.409 |
| DDA1 (UniProt Q9BW61) | 0.696 | 0.452 |
| MECR (UniProt Q9BV79) | 0.0268 | -0.0604 |
| MYBBP1A (UniProt Q9BQG0) | -0.513 | -0.0513 |
| QTRT1 (UniProt Q9BXR0) | -0.977 | -0.299 |
| UniProt Q9BSU1 | -0.464 | -0.0244 |

| Target | melting temperature shift (MBE1 concentration: 100 nM) [°C] | melting temperature shift (MBE1 concentration: 1 uM) [°C] |
| --- | --- | --- |
| CHCHD6 (UniProt Q9BRQ6) | -3.03 | -1.88 |
| PI4K2A (UniProt Q9BTU6) | -0.49 | -0.288 |
| UniProt Q9BY43 | -3.14 | -3.72 |
| RUSC1 (UniProt Q9BVN2) | -1.27 | -0.301 |
| UTP14A (UniProt Q9BVJ6) | -0.0183 | 0.946 |
| MRPL45 (UniProt Q9BRJ2) | 1.37 | -1.39 |
| PIP5K1A (UniProt Q99755) | 0.147 | 0.708 |
| UniProt Q9BY66 | -0.806 | -0.535 |
| DPH7 (UniProt Q9BTV6) | -1.11 | 0.116 |
| TSG101 (UniProt Q99816) | 0.757 | 0.641 |
| UniProt Q99877 | 0.457 | -0.281 |
| ISCA1 (UniProt Q9BUE6) | 0.315 | 0.469 |
| AGPAT1 (UniProt Q99943) | 0.989 | 0.25 |
| S100A13 (UniProt Q99584) | -0.437 | -1.81 |
| CHP1 (UniProt Q99653) | -0.403 | 0.238 |
| PLIN2 (UniProt Q99541) | -0.538 | -0.232 |
| ARPC5L (UniProt Q9BPX5) | -1.8 | 0.201 |
| TMEM70 (UniProt Q9BUB7) | -1.23 | 0.00671 |
| SLC29A1 (UniProt Q99808) | -2.16 | -7.15 |
| RAB11FIP5 (UniProt Q9BXF6) | -0.464 | -0.684 |
| UniProt Q99728 | -4.53 | -2.59 |
| UniProt Q9BXP2 | -0.443 | 1.21 |
| PAAF1 (UniProt Q9BRP4) | -0.769 | -0.702 |
| TMEM59 (UniProt Q9BXS4) | -2.02 | 0.718 |

| Target | melting temperature shift (MBE1 concentration: 100 nM) [°C] | melting temperature shift (MBE1 concentration: 1 uM) [°C] |
| --- | --- | --- |
| UniProt Q9BS16 | -4.79 | -5.11 |
| UniProt Q9BX79 | -2.26 | -3.48 |
| AARSD1 (UniProt Q9BTE6) | 0.281 | -0.788 |
| SDF4 (UniProt Q9BRK5) | -0.521 | 0.195 |
| C7ORF50 (UniProt Q9BRJ6) | -1.04 | -1.96 |
| UniProt Q9BSQ5 | -0.0672 | 0.189 |
| MTG1 (UniProt Q9BT17) | -3.97 | -2.09 |
| UniProt Q99767 | 0.0565 | -0.169 |
| RTFDC1 (UniProt Q9BY42) | 0.318 | -0.452 |
| POLDIP3 (UniProt Q9BY77) | 1.21 | 0.128 |
| C17ORF80 (UniProt Q9BSJ5) | -0.174 | -0.256 |
| TSNAX (UniProt Q99598) | -1.47 | -0.891 |
| UniProt Q99735 | -2.72 | -2.6 |
| ANP32E (UniProt Q9BTT0) | -0.359 | -0.333 |
| UBAC1 (UniProt Q9BSL1) | 1.76 | -0.318 |
| FAM213A (UniProt Q9BRX8) | -0.568 | 0.183 |
| PTDSS2 (UniProt Q9BVG9) | -0.731 | 1.37 |
| UniProt Q9BSK2 | 2.6 | 0.258 |
| MGLL (UniProt Q99685) | -0.0469 | 0 |
| UniProt Q99828 | 0.434 | 2.25 |
| UniProt Q9BRR3 | -0.711 | -0.825 |
| INPP5K (UniProt Q9BT40) | 0.934 | 0.885 |
| ERP44 (UniProt Q9BS26) | -1.33 | -1.6 |
| DDX23 (UniProt Q9BUQ8) | -1.14 | -1.68 |

Complete entries, quoted from the list:
AARSD1 (UniProt Q9BTE6) in the list: melting temperature shift (MBE1 concentration: 100 nM) [°C]: 0.281; melting temperature shift (MBE1 concentration: 1 uM) [°C]: -0.788
UniProt Q9BY66 in the list: melting temperature shift (MBE1 concentration: 100 nM) [°C]: -0.806; melting temperature shift (MBE1 concentration: 1 uM) [°C]: -0.535

Remaining list, next part

| Target | melting temperature shift (MBE1 concentration: 100 nM) [°C] | melting temperature shift (MBE1 concentration: 1 uM) [°C] |
| --- | --- | --- |
| VPS25 (UniProt Q9BRG1) | 0.402 | 0.449 |
| CINP (UniProt Q9BW66) | -1.86 | 1.46 |
| MIEN1 (UniProt Q9BRT3) | -0.366 | -0.611 |
| GINS4 (UniProt Q9BRT9) | -0.189 | 0.244 |
| SLC4A1AP (UniProt Q9BWU0) | 0.0794 | 0.372 |
| WDR18 (UniProt Q9BV38) | -1.16 | -0.61 |
| UniProt Q9BY89 | -0.687 | 0.362 |
| TBCD (UniProt Q9BTW9) | 0.568 | 0.299 |
| UniProt Q9BR77 | -3.82 | 0.269 |
| TBC1D10A (UniProt Q9BXI6) | 1.95 | 0.971 |
| MTR (UniProt Q99707) | 0.0565 | -0.174 |
| UniProt Q9BRT8 | -1.98 | -0.127 |
| COPS4 (UniProt Q9BT78) | -0.349 | 0.0134 |
| NUDT9 (UniProt Q9BW91) | -0.244 | -0.281 |
| TCF25 (UniProt Q9BQ70) | -0.405 | -0.62 |
| UniProt Q9BSK4 | 0.884 | -0.202 |
| NOC4L (UniProt Q9BVI4) | -0.179 | -0.0513 |
| SH3GL1 (UniProt Q99961) | -0.39 | -0.715 |
| UniProt Q99698 | -2.8 | -0.161 |
| DNAJC7 (UniProt Q99615) | 0.226 | 0.0366 |
| MAPKAP1 (UniProt Q9BPZ7) | 0.273 | 0.0518 |
| HSD17B10 (UniProt Q99714) | -0.604 | 0.376 |
| FERMT1 (UniProt Q9BQL6) | 0.879 | 0.134 |
